This is one part of the list.
Legend:
Experiment in all cases: log2 fold change, soluble protein after heating vs DMSO (PISA); higher = thermal stabilisation; K562 lysate, 10 uM; active = over 0.2 and 3.5 SD of the protein, either way, in both replicates (recomputed)
vemurafenib = compound: CCCS(=O)(=O)Nc1ccc(F)c(C(=O)c2c[nH]c3ncc(-c4ccc(Cl)cc4)cc23)c1F [vemurafenib]
Outline: (§1)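 A 30 min treatment with 10 μM compound was applied to crude K562 extract at 1 mg/mL protein in PBS pH 7.4 with 1 mM MgCl2. Heating for 3 min spanned 48°C-58°C, after which aliquots were pooled, adjusted to 0.5% NP-40 at 4°C and spun at 21,000xg for 90 min. TMTpro 16plex LC-MS/MS of the supernatant, with channel sums equalised, gave values recorded as log-two fold change in thermal stability against solvent controls, from duplicates.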

Chains of the proteins cited; added tags and fusions are not shown. Lines headed by an entry give the natural chain unless they say otherwise; changes in a name come on top.
UniProt Q6ZNA5: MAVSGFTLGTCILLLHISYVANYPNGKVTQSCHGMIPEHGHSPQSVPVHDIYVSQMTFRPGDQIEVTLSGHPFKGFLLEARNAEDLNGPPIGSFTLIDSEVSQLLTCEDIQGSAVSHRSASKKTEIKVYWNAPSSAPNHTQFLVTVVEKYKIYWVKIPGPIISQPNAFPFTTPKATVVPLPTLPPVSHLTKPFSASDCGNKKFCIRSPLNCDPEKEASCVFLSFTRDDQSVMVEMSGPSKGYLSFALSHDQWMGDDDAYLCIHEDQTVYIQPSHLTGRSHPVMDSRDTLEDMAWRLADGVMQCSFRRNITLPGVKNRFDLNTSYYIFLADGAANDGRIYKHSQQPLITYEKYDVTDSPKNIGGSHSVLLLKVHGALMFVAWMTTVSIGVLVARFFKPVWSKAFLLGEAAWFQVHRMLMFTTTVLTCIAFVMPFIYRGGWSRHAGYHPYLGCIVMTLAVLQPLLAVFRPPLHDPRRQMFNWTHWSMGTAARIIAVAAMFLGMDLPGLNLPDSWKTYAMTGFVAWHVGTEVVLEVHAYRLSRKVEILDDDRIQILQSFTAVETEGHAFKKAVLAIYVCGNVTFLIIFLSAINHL
UniProt Q96CU9: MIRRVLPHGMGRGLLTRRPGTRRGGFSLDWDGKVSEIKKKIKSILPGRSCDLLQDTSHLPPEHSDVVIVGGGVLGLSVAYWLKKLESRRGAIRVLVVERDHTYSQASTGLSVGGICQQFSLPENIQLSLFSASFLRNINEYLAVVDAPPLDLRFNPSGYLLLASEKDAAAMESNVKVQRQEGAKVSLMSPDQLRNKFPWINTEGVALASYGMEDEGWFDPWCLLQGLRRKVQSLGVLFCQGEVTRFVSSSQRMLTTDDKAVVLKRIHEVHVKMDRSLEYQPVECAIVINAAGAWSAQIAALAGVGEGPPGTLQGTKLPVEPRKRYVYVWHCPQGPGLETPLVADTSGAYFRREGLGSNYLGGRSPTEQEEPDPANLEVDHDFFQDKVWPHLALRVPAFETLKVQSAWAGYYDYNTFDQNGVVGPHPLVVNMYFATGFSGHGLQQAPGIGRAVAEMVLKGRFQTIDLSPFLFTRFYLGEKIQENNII
UniProt Q9UJY5: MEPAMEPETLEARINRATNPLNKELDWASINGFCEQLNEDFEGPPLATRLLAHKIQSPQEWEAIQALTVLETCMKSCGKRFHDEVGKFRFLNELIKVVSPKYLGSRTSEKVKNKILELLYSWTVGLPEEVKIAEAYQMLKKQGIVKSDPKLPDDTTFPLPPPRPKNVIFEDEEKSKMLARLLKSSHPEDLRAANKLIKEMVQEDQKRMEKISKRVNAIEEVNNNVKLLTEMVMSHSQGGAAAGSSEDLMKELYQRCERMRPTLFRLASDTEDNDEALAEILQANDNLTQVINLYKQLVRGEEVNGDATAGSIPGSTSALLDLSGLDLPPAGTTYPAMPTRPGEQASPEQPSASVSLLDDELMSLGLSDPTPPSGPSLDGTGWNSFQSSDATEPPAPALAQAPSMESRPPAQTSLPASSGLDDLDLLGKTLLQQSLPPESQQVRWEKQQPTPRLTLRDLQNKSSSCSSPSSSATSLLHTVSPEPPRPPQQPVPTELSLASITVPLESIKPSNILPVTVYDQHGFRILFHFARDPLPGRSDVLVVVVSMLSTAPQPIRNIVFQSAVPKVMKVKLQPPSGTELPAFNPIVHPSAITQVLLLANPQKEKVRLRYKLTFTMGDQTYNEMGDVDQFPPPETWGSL
UniProt Q8WXD5: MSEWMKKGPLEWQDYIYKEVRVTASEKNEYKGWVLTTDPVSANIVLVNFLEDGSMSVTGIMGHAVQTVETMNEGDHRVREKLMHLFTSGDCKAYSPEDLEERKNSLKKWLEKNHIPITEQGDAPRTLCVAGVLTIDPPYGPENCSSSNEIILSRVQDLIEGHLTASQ
UniProt Q9UET6: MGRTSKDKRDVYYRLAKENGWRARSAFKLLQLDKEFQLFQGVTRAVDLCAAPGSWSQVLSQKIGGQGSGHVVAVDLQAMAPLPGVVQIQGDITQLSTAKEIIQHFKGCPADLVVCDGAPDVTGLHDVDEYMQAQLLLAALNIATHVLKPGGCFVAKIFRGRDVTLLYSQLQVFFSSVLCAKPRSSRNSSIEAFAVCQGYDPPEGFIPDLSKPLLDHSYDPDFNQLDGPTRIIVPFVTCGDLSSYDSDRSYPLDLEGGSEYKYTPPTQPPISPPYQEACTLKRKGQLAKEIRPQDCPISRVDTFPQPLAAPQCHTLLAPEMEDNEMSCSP
UniProt P16383: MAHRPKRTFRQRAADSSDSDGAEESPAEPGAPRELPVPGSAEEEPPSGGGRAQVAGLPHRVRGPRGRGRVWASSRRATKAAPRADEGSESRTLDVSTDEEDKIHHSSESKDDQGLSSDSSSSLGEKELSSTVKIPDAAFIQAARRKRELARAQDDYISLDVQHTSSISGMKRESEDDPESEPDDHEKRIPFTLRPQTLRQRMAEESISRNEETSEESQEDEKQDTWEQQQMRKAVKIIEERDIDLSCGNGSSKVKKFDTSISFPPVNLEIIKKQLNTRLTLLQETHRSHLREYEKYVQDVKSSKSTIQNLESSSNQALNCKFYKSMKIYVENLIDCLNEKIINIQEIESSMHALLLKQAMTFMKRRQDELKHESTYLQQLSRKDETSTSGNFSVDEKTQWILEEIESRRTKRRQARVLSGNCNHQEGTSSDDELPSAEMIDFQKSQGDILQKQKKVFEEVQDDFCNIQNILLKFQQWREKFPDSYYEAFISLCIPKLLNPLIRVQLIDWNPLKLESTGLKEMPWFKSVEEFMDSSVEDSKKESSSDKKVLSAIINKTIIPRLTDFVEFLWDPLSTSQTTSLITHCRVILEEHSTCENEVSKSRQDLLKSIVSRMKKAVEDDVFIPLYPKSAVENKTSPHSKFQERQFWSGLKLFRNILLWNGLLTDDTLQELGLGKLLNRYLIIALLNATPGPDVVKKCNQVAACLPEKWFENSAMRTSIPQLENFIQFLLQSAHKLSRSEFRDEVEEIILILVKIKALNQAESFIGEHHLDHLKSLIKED
FOXO3B, A0A2Z4LIS9, UniProt A0A2Z4LIS9, whole entry, looked up: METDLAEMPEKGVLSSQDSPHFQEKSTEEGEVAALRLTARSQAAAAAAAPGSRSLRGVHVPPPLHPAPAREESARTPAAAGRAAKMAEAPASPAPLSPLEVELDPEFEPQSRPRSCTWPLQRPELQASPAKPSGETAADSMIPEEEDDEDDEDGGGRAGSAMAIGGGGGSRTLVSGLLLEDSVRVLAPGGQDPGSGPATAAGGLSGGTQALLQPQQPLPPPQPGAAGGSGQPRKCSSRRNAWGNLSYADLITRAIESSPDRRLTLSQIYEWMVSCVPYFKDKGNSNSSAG
UniProt Q99988: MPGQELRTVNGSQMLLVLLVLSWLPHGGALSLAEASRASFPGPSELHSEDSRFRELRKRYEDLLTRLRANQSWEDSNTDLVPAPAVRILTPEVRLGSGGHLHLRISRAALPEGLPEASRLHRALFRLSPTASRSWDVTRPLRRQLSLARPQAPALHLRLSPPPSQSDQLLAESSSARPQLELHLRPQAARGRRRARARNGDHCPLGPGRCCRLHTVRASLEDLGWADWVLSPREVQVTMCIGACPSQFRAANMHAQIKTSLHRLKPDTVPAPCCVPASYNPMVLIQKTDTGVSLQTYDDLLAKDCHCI
UniProt Q9NWZ8: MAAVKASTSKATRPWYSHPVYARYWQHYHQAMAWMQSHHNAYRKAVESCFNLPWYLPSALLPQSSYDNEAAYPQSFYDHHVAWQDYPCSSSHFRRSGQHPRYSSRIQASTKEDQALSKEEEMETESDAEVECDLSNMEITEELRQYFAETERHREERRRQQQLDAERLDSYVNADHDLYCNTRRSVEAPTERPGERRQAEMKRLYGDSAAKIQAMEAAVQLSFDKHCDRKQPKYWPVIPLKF
UniProt O43716: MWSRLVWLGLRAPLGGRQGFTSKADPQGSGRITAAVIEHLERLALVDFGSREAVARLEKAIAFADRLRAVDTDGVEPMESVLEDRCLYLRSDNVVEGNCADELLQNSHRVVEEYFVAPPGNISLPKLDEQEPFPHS
UniProt Q8IVP5: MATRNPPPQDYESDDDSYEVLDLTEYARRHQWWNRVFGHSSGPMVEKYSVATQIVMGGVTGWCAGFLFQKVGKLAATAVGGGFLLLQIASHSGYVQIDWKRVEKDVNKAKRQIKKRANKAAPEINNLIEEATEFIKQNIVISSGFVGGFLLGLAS
UniProt Q5JV73, whole entry, looked up: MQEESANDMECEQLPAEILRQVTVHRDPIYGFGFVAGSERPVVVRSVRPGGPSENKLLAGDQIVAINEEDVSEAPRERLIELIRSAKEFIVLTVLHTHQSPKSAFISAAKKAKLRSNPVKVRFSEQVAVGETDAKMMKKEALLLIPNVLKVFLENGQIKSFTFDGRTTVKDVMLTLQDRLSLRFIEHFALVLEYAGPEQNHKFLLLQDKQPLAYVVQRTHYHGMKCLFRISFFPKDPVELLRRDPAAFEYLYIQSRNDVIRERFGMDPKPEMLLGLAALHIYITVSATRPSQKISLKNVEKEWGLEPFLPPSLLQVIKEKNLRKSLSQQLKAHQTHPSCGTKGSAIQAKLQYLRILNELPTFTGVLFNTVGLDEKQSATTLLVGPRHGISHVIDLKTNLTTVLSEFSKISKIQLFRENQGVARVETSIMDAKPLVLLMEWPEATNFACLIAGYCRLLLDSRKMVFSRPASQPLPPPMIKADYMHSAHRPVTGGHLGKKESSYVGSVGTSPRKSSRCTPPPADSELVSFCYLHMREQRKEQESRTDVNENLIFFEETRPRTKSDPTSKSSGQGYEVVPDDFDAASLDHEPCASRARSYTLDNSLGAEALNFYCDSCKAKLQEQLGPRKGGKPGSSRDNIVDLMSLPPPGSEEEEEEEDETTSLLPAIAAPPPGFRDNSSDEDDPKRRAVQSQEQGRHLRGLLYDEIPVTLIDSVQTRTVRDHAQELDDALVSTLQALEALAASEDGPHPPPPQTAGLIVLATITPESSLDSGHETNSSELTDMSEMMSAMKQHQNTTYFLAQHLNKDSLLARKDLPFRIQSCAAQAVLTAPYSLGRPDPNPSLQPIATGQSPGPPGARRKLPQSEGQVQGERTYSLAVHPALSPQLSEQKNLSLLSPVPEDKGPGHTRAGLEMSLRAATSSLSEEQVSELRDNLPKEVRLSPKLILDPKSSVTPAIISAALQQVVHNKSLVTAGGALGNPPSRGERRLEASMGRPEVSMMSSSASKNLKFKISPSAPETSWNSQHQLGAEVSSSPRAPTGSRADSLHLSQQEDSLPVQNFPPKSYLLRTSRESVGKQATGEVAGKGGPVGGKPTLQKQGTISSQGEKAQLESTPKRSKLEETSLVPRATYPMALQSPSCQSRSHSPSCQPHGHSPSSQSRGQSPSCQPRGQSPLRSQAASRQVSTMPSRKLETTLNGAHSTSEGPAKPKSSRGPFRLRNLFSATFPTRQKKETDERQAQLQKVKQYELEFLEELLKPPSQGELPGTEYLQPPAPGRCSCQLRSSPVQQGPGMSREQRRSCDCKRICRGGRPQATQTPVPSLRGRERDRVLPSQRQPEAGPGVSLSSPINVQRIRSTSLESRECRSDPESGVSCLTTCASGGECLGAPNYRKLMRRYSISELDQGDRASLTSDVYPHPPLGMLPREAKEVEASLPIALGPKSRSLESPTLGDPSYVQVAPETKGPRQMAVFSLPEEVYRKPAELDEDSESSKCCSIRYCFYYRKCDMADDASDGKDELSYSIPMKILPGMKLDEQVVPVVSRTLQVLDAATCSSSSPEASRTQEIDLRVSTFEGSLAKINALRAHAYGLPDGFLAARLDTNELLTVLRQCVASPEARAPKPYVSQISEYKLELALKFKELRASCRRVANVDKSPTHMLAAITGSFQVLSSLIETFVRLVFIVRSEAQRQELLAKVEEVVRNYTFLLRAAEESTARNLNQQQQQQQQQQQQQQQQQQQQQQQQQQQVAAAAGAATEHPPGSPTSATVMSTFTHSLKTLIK
UniProt Q86SR1: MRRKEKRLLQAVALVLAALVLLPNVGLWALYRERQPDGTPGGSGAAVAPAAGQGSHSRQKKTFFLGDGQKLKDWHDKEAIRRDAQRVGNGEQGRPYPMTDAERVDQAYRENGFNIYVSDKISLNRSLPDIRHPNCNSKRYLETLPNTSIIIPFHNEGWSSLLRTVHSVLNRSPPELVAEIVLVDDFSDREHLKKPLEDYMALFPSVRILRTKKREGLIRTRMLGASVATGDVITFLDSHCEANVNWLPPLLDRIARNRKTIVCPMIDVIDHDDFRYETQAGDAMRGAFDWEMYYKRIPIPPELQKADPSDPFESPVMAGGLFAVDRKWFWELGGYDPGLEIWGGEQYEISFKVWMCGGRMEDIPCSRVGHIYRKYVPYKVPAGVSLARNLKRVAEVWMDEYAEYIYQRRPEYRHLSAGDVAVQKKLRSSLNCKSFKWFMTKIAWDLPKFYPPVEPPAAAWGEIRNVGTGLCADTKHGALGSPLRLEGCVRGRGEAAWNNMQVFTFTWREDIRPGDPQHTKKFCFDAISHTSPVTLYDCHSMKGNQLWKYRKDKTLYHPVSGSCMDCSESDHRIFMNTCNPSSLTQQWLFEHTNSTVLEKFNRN

[1] = compound: CCCS(=O)(=O)Nc1ccc(F)c(C(=O)c2c[nH]c3ncc(Cl)cc23)c1F
Outline: as §1

barasertib = compound: CCN(CCCOc1ccc2c(Nc3cc(CC(=O)Nc4cccc(F)c4)[nH]n3)ncnc2c1)CCOP(=O)(O)O [barasertib]
Outline: as §1

[2] = compound: CC[C@@H]1C(=O)N(C)c2cnc(Nc3ccc(C(=O)NC4CCN(C)CC4)cc3OC)nc2N1C1CCCC1
Outline: as §1

volasertib = compound: CC[C@@H]1C(=O)N(C)c2cnc(Nc3ccc(C(=O)N[C@H]4CC[C@H](N5CCN(CC6CC6)CC5)CC4)cc3OC)nc2N1C(C)C [volasertib]
Outline: as §1

[3] = compound: CCn1c(C(=O)N(C2CC2)C2CC2)cc2c3c(ncn3C)c(Nc3cc(C)n(C)n3)nc21
Outline: as §1

[4] = compound: CCn1cc(-c2ccnc3[nH]c(-c4cccc(CN(C)C)c4)cc23)c(-c2ccc(NC(=O)N(C)C)cc2)n1
Outline: as §1

[5] = compound: CN1CCC(CNc2ccc3ncc(-c4cccc(OC(F)(F)F)c4)n3n2)CC1
Outline: as §1

saracatinib = compound: CN1CCN(CCOc2cc(OC3CCOCC3)c3c(Nc4c(Cl)ccc5c4OCO5)ncnc3c2)CC1 [saracatinib]
Outline: as §1

sotrastaurin = compound: CN1CCN(c2nc(C3=C(c4c[nH]c5ccccc45)C(=O)NC3=O)c3ccccc3n2)CC1 [sotrastaurin]
Outline: as §1

Measured: log2 fold change

GANAB isoform 2 (UniProt Q14697)
inactive: vemurafenib 0 | [1] 0.003 | barasertib 0.02 | [2] 0.013 | volasertib -0.017 | [3] 0.023 | [4] -0.059 | [5] 0.006 | saracatinib -0.014 | sotrastaurin 0.012

FRRS1 (UniProt Q6ZNA5)
inactive: vemurafenib 0.073 | [1] -0.024 | barasertib -0.011 | [2] 0.055 | volasertib -0.009 | [3] -0.034 | [4] -0.094 | [5] 0.174 | saracatinib 0.046 | sotrastaurin 0.009

GABARAP (UniProt O95166)
inactive: vemurafenib 0.07 | [1] 0.06 | barasertib -0.02 | [2] 0.003 | volasertib 0.015 | [3] -0.028 | [4] 0.142 | [5] 0.051 | saracatinib 0.016 | sotrastaurin 0.002

G3BP1 (UniProt Q13283)
inactive: vemurafenib -0.018 | [1] 0.01 | barasertib -0.033 | [2] -0.036 | volasertib -0.006 | [3] 0.013 | [4] -0.188 | [5] 0.098 | saracatinib -0.015 | sotrastaurin 0.047

FOXRED1 (UniProt Q96CU9)
inactive: vemurafenib 0.003 | [1] 0.035 | barasertib 0.018 | [2] 0.047 | volasertib -0.01 | [3] 0.015 | [4] -0.07 | [5] 0.075 | saracatinib 0.009 | sotrastaurin -0.01

FYB1 isoform 3 (UniProt O15117)
inactive: vemurafenib -0.056 | [1] -0.011 | barasertib -0.003 | [2] 0.043 | volasertib -0.026 | [3] -0.018 | [4] 0.072 | [5] -0.101 | saracatinib 0.007 | sotrastaurin 0.008

GARS1 (UniProt P41250)
inactive: vemurafenib 0.012 | [1] -0.017 | barasertib -0.001 | [2] -0.013 | volasertib -0.008 | [3] -0.01 | [4] 0.001 | [5] 0.029 | saracatinib -0.011 | sotrastaurin -0.022

FUNDC2 (UniProt Q9BWH2)
inactive: vemurafenib 0.016 | [1] 0.004 | barasertib 0.01 | [2] 0.049 | volasertib -0.001 | [3] -0.004 | [4] -0.061 | [5] 0.064 | saracatinib 0 | sotrastaurin 0.005

GGA1 isoform 6 (UniProt Q9UJY5)
inactive: vemurafenib 0.038 | [1] -0.002 | barasertib 0.022 | [2] 0.05 | volasertib 0.005 | [3] -0.048 | [4] 0.006 | [5] -0.02 | saracatinib -0.006 | sotrastaurin 0.031

GEMIN6 (UniProt Q8WXD5)
inactive: vemurafenib 0.021 | [1] 0.048 | barasertib 0.086 | [2] 0.097 | volasertib 0.015 | [3] -0.01 | [4] -0.083 | [5] 0.029 | saracatinib 0.005 | sotrastaurin -0.029

FTSJ1 (UniProt Q9UET6)
inactive: vemurafenib -0.036 | [1] -0.006 | barasertib -0.043 | [2] -0.04 | volasertib -0.056 | [3] -0.003 | [4] 0.067 | [5] 0.027 | saracatinib -0.018 | sotrastaurin 0.089

GCFC2 (UniProt P16383)
inactive: vemurafenib 0.053 | [1] 0.008 | barasertib -0.026 | [2] 0.029 | volasertib -0.019 | [3] -0.014 | [4] -0.01 | [5] 0.032 | saracatinib -0.002 | sotrastaurin 0.004

FOXO3B, A0A2Z4LIS9
inactive: vemurafenib 0.011 | saracatinib 0.027

FUOM (UniProt A2VDF0)
inactive: vemurafenib 0.091 | [1] 0.001 | [2] 0.179 | volasertib 0.003 | [3] -0.027 | [4] 0.06 | [5] 0.054 | saracatinib 0.151

Retrieved one by one from the entries so far, two records:
FRRS1 (UniProt Q6ZNA5)
inactive: vemurafenib 0.073 | [1] -0.024 | barasertib -0.011 | [2] 0.055 | volasertib -0.009 | [3] -0.034 | [4] -0.094 | [5] 0.174 | saracatinib 0.046 | sotrastaurin 0.009

FOXRED1 (UniProt Q96CU9)
inactive: vemurafenib 0.003 | [1] 0.035 | barasertib 0.018 | [2] 0.047 | volasertib -0.01 | [3] 0.015 | [4] -0.07 | [5] 0.075 | saracatinib 0.009 | sotrastaurin -0.01

Next entries:

GATB (UniProt O75879)
inactive: vemurafenib -0.228 | [1] 0.143 | volasertib 0.008 | [3] -0.006 | [4] -0.023 | [5] -0.075 | saracatinib -0.142

FUT8 (UniProt Q9BYC5)
inactive: [1] -0.026 | barasertib 0.251 | [2] 0.079 | volasertib 0.12 | [3] 0.239

GADD45GIP1 (UniProt Q8TAE8)
inactive: vemurafenib -0.011 | [1] 0.041 | barasertib 0.047 | [2] 0.018 | volasertib 0.014 | [3] 0.005 | [4] -0.021 | [5] 0.081 | saracatinib -0.039 | sotrastaurin -0.015

GDF15 (UniProt Q99988)
inactive: vemurafenib 0.034 | [3] 0.027 | [4] 0.12 | [5] -0.128 | saracatinib 0.041 | sotrastaurin 0.071

FOXP1 (UniProt Q9H334)
inactive: vemurafenib 0.082 | barasertib 0 | [2] -0.077 | [3] 0.096 | [4] 0.032 | [5] -0.035 | saracatinib 0.035 | sotrastaurin 0.102

FOXP4 (UniProt Q8IVH2)
inactive: vemurafenib 0.001 | barasertib -0.161 | [2] 0 | [3] 0.005 | [4] -0.07 | [5] 0.143 | saracatinib -0.083

FSCN2 isoform 2 (UniProt O14926)
inactive: vemurafenib -0.173 | [2] -0.096 | sotrastaurin -0.011

GC isoform 3 (UniProt P02774)
inactive: vemurafenib -0.008 | [2] 0.022 | [3] -0.27 | [4] 0.146 | [5] -0.12 | saracatinib -0.02 | sotrastaurin 0.043

GEMIN8 (UniProt Q9NWZ8)
inactive: vemurafenib -0.033 | [1] 0.143 | barasertib 0.002 | [2] 0.27 | volasertib -0.038 | [3] -0.089 | [4] 0.081 | [5] -0.117 | sotrastaurin -0.001

FUNDC2 (UniProt H7C0K8)
inactive: vemurafenib 0.116 | [1] 0.06 | barasertib 0.129 | volasertib 0.073

GEN1 (UniProt Q17RS7)
inactive: vemurafenib -0.143 | [2] 0.013 | [3] 0.055 | saracatinib 0.035 | sotrastaurin 0

GATC (UniProt O43716)
inactive: vemurafenib 0.086 | [1] -0.021 | [2] 0.027 | volasertib -0.045 | [3] 0.027 | [4] 0.128 | [5] -0.129 | saracatinib -0.045 | sotrastaurin -0.012

FUNDC1 (UniProt Q8IVP5)
inactive: vemurafenib 0.134 | [1] -0.013 | [2] -0.059 | volasertib 0.085 | [3] -0.143 | [4] -0.107 | [5] 0.085 | saracatinib 0.096 | sotrastaurin -0.008

FRMPD3 (UniProt Q5JV73)
inactive: vemurafenib 0.003 | [1] 0.016 | barasertib 1.15 | volasertib -0.01 | [3] -0.11 | [4] 0.636 | [5] 0

FOXRED2 (UniProt Q8IWF2)
inactive: vemurafenib -0.007 | [2] 0.176 | [3] -0.025 | saracatinib 0.021 | sotrastaurin -0.041

GALNT4 (UniProt Q8N4A0)
inactive: vemurafenib -0.037 | [1] 0.025 | barasertib 0.035 | [2] 0.085 | volasertib 0.086 | [4] 0.024 | [5] -0.038 | saracatinib 0.029 | sotrastaurin 0.093

GALNT10 (UniProt Q86SR1)
inactive: vemurafenib -0.132 | [1] 0.092 | barasertib -0.112 | [2] 0.173 | volasertib -0.005 | saracatinib 0.09

FYN (UniProt P06241)
inactive: vemurafenib -0.036 | [1] -0.01 | barasertib 0.065 | [2] -0.351 | volasertib 0.046 | [3] 0.033 | [4] 0.048 | [5] 0.22 | sotrastaurin 0.023

FURIN (UniProt P09958)
inactive: vemurafenib 0.123 | barasertib 0.067 | [2] -0.055 | [3] 0.014 | [4] -0.051 | [5] 0.008 | saracatinib 0.08 | sotrastaurin 0.002

GALNT7 (UniProt H0YAH3)
inactive: vemurafenib 0.076 | [2] -0.058 | [4] -0.016 | [5] -0.086

Source: the supplement of paper PMC10849652
